Results are given in words; binding and its absence hold for the method and conditions named. In cells and extracts the contact can be indirect. Some entries that bind do so weakly or less than the wild type.
Molecular target: endogenous OPA1 (mouse brain) (mouse (endogenous in C57/Bl6 brain)) (UniProt P58281)
Test: co-IP; C57/Bl6 mouse brain hemisphere homogenate (50 mM Tris pH 7.5, 1% NP-40, 2 mM EDTA, 100 mM NaCl) incubated overnight at 4 °C with anti-OPA1 on protein G agarose or protein G agarose alone, Western blot for Omi/HtrA2

By UniProt entry, the sequences of proteins in these tests, tags left out. Residues count along the entry.
UniProt P58281, residues 88-960: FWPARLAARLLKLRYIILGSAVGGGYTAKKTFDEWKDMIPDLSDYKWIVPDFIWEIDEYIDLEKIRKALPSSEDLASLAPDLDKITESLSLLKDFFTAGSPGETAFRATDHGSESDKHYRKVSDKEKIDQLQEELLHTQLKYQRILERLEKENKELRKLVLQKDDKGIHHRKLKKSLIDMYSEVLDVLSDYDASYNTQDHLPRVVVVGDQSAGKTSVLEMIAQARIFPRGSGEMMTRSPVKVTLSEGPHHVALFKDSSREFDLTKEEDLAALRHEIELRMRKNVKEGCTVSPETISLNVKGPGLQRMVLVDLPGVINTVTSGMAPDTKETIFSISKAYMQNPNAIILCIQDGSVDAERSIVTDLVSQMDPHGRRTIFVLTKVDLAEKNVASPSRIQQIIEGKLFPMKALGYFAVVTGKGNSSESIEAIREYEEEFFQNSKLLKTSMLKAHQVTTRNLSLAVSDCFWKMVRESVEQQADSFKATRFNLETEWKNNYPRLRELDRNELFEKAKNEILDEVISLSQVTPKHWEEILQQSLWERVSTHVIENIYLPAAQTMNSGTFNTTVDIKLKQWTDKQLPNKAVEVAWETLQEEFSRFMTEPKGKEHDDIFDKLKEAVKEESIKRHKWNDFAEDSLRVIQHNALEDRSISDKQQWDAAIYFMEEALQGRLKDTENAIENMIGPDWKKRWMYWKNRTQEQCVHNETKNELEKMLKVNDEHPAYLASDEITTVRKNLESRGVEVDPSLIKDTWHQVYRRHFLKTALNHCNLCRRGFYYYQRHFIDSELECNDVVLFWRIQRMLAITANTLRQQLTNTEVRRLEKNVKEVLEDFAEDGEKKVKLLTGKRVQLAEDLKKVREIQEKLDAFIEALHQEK

B1: endogenous Omi/HtrA2 (mouse brain) (enzyme, UniProt Q9JIY5 134-458)
chain: AVPAPPPTSPRSQYNFIADVVEKTAPAVVYIEILDRHPFSGREVPISNGSGFVVASDGLIVTNAHVVADRRRVRVRLPSGDTYEAMVTAVDPVADIATLRIQTKEPLPTLPLGRSADVRQGEFVVAMGSPFALQNTITSGIVSSAQRPARDLGLPQNNVEYIQTDAAIDFGNSGGPLVNLDGEVIGVNTMKVTAGISFAIPSDRLREFLHRGEKKNSWFGTSGSQRRYIGVMMLTLTPSILIELQLREPSFPDVQHGVLIHKVILGSPAHRAGLRPGDVILAIGEKLAQNAEDVYEAVRTQSQLAVRIRRGSETLTLYVTPEVTE
binding: binds

Reference: PMC3063334
